Assay results published in article PMC6258673.
Results are given in words; binding and its absence hold for the method and conditions named. In cells and extracts the contact can be indirect. Some entries that bind do so weakly or less than the wild type. For some assays here: Sequences can lack the tags named with a protein.

Amino acid sequences for entries named in this document (tags omitted).
UniProt Q13263: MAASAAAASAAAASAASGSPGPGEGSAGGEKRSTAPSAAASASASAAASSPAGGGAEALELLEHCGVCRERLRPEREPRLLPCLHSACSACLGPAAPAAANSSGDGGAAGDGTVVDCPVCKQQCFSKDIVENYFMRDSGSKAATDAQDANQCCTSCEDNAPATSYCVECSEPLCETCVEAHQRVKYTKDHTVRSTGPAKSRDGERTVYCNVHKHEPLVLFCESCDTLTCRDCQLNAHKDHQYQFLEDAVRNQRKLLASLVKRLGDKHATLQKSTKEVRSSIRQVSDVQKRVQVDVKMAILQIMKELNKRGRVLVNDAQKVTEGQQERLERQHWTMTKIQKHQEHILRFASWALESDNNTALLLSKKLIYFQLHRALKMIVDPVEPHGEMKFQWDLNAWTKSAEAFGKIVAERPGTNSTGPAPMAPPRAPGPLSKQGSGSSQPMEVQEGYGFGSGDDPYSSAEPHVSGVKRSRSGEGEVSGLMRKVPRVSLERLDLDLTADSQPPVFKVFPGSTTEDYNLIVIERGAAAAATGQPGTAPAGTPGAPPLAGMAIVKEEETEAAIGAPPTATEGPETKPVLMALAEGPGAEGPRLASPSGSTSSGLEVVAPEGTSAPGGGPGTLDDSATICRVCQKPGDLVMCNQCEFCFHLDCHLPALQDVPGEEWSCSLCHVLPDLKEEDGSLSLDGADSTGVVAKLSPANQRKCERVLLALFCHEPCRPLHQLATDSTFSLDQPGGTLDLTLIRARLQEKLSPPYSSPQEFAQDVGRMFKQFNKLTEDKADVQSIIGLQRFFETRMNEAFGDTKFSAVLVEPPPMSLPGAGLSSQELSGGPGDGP
UniProt O43791: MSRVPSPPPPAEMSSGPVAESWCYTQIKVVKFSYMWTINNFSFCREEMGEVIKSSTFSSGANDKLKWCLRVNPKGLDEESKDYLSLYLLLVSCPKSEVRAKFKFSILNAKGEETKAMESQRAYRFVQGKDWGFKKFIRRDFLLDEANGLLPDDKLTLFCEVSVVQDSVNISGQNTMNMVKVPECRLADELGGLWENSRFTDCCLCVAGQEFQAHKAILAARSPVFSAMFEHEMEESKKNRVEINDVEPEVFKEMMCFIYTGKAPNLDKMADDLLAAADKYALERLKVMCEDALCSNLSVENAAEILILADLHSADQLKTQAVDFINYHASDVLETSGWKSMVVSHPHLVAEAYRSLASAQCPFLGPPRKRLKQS

Tests used:
[1] = biological target: T1, TRIM24-SFB (overexpressed in 293T cells) (UniProt O15164); assay: co-IP; S-protein agarose beads pull-down of the SFB-tagged bait from 293T (HEK293T) lysates, 3 h at 4 °C; immunoblot; in Fig. 3d, h cells treated with 20 uM MG132 for 24 h
T1 sequence: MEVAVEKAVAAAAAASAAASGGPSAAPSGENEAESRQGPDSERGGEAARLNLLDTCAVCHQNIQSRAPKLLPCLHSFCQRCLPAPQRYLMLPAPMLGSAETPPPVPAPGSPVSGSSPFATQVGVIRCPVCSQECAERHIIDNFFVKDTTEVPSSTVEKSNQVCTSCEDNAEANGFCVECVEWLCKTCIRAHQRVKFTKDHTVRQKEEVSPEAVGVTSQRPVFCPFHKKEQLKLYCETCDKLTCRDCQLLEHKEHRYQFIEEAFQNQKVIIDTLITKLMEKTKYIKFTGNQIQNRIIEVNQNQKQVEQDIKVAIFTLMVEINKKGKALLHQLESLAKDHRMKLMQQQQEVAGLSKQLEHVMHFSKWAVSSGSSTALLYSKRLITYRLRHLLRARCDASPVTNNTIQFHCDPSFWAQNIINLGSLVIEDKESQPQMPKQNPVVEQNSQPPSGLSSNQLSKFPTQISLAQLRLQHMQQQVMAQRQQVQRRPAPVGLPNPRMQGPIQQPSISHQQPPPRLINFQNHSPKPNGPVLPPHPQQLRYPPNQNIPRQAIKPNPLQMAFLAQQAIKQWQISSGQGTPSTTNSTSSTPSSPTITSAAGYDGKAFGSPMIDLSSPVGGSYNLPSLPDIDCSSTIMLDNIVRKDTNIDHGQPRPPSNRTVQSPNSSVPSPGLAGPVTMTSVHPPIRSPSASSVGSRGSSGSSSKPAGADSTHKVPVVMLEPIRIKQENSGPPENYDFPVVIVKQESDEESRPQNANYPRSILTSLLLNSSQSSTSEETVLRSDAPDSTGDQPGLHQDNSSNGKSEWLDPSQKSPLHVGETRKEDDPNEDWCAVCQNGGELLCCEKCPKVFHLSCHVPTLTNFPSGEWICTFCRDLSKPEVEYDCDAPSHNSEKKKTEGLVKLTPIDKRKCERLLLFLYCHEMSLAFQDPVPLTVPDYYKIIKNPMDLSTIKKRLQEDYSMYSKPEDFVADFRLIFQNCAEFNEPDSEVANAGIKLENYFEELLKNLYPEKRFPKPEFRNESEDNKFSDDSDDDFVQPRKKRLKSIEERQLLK

[2] = biological target: T2, GST-TRIM24 (1–400aa) (UniProt O15164); assay: pull-down; bacterial recombinant GST-TRIM24 (1–400aa) on GSH beads, incubated 2–3 h with LNCaP lysates expressing SFB-tagged TRIM28 full length or deletion mutants; washed with NETN; blot with anti-Flag; only the target purified
T2 sequence: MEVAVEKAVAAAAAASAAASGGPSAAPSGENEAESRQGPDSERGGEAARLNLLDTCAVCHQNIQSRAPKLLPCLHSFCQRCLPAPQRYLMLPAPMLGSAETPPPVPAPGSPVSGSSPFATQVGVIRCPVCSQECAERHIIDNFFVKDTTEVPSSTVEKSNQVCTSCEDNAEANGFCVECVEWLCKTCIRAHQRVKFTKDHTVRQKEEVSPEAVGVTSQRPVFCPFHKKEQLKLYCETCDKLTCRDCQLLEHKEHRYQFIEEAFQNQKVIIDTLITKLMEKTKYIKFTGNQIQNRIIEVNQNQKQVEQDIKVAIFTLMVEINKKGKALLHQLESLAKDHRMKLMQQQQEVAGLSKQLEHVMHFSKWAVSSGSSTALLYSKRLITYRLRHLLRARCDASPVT

[3] = biological target: T3, TRIM24-SFB (UniProt O15164); assay: pull-down; S-beads (S-protein agarose) pull down TRIM24-SFB from extract of HEK293T cells co-transfected with Myc-RBX1 or Myc-CUL3, with or without HA-TRIM28; cells treated with 20uM MG132 for 24 hrs; bound proteins analysed by immunoblotting
T3 sequence: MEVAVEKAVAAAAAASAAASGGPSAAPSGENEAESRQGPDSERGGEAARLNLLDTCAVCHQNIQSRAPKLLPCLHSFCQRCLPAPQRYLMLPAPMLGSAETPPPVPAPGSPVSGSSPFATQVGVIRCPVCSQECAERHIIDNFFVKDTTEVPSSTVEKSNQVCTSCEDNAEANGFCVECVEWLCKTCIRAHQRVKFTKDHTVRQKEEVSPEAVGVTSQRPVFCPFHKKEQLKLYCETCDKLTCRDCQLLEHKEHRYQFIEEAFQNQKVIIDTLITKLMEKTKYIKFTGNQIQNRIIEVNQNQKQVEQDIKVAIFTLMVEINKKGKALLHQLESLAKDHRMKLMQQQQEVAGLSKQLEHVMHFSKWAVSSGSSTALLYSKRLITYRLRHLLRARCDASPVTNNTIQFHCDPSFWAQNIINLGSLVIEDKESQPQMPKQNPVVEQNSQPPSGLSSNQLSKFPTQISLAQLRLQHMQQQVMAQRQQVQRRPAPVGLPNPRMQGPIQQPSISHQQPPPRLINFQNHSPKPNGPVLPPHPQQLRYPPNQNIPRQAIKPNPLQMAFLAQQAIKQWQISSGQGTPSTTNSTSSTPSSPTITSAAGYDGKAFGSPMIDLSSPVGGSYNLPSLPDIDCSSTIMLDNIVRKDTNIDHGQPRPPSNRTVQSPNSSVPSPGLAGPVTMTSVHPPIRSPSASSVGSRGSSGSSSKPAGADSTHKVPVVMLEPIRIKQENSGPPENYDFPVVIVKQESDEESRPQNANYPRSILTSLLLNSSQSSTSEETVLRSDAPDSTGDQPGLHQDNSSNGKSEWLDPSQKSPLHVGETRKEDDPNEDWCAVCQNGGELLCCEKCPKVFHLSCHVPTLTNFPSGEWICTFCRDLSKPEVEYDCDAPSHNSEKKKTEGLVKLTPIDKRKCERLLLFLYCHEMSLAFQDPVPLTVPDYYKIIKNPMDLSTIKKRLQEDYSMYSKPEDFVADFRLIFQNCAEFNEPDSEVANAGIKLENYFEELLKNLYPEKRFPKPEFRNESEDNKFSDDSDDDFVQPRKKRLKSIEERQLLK

[4] = biological target: T4, TRIM24 Δ300–460 mutant (TRIM24-SFB) (UniProt O15164); assay: co-IP; S-protein agarose beads pull-down of the SFB-tagged bait from 293T (HEK293T) lysates, 3 h at 4 °C; immunoblot; in Fig. 3d, h cells treated with 20 uM MG132 for 24 h
T4 sequence: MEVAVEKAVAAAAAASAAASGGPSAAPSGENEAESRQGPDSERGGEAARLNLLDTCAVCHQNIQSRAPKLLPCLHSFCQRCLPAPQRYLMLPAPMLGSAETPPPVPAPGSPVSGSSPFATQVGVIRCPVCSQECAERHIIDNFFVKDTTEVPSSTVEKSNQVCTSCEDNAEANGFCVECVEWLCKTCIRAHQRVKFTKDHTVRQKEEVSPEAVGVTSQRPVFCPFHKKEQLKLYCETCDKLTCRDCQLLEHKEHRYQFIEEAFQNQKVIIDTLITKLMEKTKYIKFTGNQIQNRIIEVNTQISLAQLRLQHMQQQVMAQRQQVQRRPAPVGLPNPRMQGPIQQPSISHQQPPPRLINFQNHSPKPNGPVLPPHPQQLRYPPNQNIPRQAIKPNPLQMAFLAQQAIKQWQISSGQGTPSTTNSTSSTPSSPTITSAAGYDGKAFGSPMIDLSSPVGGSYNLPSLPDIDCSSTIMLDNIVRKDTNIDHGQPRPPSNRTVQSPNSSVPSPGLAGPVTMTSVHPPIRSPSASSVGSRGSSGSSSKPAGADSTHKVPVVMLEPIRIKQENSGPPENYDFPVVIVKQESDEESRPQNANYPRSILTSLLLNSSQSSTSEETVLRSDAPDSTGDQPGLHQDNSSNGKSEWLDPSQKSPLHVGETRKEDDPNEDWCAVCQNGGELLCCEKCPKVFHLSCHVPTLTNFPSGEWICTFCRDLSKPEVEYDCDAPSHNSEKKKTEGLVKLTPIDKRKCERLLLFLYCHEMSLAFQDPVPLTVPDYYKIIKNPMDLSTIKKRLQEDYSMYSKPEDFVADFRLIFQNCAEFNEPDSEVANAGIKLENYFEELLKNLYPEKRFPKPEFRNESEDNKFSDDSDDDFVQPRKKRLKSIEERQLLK

[5] = biological target: endogenous TRIM28 (LNCaP cells) (human (endogenous in LNCaP)) (UniProt Q13263); assay: co-IP; endogenous proteins; LNCaP lysate with 2 ug anti-TRIM28 overnight at 4 °C, Dynabeads Protein A 2 h; immunoblot
[6] = biological target: TRIM28-SFB (ectopic, 293T cells) (UniProt Q13263); assay: co-IP; S-protein agarose beads pull-down of the SFB-tagged bait from 293T (HEK293T) lysates, 3 h at 4 °C; immunoblot; in Fig. 3d, h cells treated with 20 uM MG132 for 24 h

In the case of “endogenous TRIM28 (293T cells) (from UniProt Q13263 1-835)”, the binding [1] is reported as “binds”.

In the case of “SFB-tagged TRIM28 wild type (LNCaP cells) (from UniProt Q13263 1-835)”, the binding [2] is reported as “binds”.

HA-TRIM28 (from UniProt Q13263 1-835) was tested, and the binding [1] was “binds” and the binding [3] was “binds”.

For Myc-SPOP (from UniProt O43791 1-374), the binding [4] was “binds” and the binding [1] was “binds”.

B1: endogenous TRIM24 (LNCaP cells) (protein, UniProt O15164 1-1050)
chain: MEVAVEKAVAAAAAASAAASGGPSAAPSGENEAESRQGPDSERGGEAARLNLLDTCAVCHQNIQSRAPKLLPCLHSFCQRCLPAPQRYLMLPAPMLGSAETPPPVPAPGSPVSGSSPFATQVGVIRCPVCSQECAERHIIDNFFVKDTTEVPSSTVEKSNQVCTSCEDNAEANGFCVECVEWLCKTCIRAHQRVKFTKDHTVRQKEEVSPEAVGVTSQRPVFCPFHKKEQLKLYCETCDKLTCRDCQLLEHKEHRYQFIEEAFQNQKVIIDTLITKLMEKTKYIKFTGNQIQNRIIEVNQNQKQVEQDIKVAIFTLMVEINKKGKALLHQLESLAKDHRMKLMQQQQEVAGLSKQLEHVMHFSKWAVSSGSSTALLYSKRLITYRLRHLLRARCDASPVTNNTIQFHCDPSFWAQNIINLGSLVIEDKESQPQMPKQNPVVEQNSQPPSGLSSNQLSKFPTQISLAQLRLQHMQQQVMAQRQQVQRRPAPVGLPNPRMQGPIQQPSISHQQPPPRLINFQNHSPKPNGPVLPPHPQQLRYPPNQNIPRQAIKPNPLQMAFLAQQAIKQWQISSGQGTPSTTNSTSSTPSSPTITSAAGYDGKAFGSPMIDLSSPVGGSYNLPSLPDIDCSSTIMLDNIVRKDTNIDHGQPRPPSNRTVQSPNSSVPSPGLAGPVTMTSVHPPIRSPSASSVGSRGSSGSSSKPAGADSTHKVPVVMLEPIRIKQENSGPPENYDFPVVIVKQESDEESRPQNANYPRSILTSLLLNSSQSSTSEETVLRSDAPDSTGDQPGLHQDNSSNGKSEWLDPSQKSPLHVGETRKEDDPNEDWCAVCQNGGELLCCEKCPKVFHLSCHVPTLTNFPSGEWICTFCRDLSKPEVEYDCDAPSHNSEKKKTEGLVKLTPIDKRKCERLLLFLYCHEMSLAFQDPVPLTVPDYYKIIKNPMDLSTIKKRLQEDYSMYSKPEDFVADFRLIFQNCAEFNEPDSEVANAGIKLENYFEELLKNLYPEKRFPKPEFRNESEDNKFSDDSDDDFVQPRKKRLKSIEERQLLK
B1 was tested, and the binding [5] was “binds”.

B2: TRIM24 in 293T cells (retained by TRIM28-SFB) (protein, UniProt O15164 1-1050)
chain: MEVAVEKAVAAAAAASAAASGGPSAAPSGENEAESRQGPDSERGGEAARLNLLDTCAVCHQNIQSRAPKLLPCLHSFCQRCLPAPQRYLMLPAPMLGSAETPPPVPAPGSPVSGSSPFATQVGVIRCPVCSQECAERHIIDNFFVKDTTEVPSSTVEKSNQVCTSCEDNAEANGFCVECVEWLCKTCIRAHQRVKFTKDHTVRQKEEVSPEAVGVTSQRPVFCPFHKKEQLKLYCETCDKLTCRDCQLLEHKEHRYQFIEEAFQNQKVIIDTLITKLMEKTKYIKFTGNQIQNRIIEVNQNQKQVEQDIKVAIFTLMVEINKKGKALLHQLESLAKDHRMKLMQQQQEVAGLSKQLEHVMHFSKWAVSSGSSTALLYSKRLITYRLRHLLRARCDASPVTNNTIQFHCDPSFWAQNIINLGSLVIEDKESQPQMPKQNPVVEQNSQPPSGLSSNQLSKFPTQISLAQLRLQHMQQQVMAQRQQVQRRPAPVGLPNPRMQGPIQQPSISHQQPPPRLINFQNHSPKPNGPVLPPHPQQLRYPPNQNIPRQAIKPNPLQMAFLAQQAIKQWQISSGQGTPSTTNSTSSTPSSPTITSAAGYDGKAFGSPMIDLSSPVGGSYNLPSLPDIDCSSTIMLDNIVRKDTNIDHGQPRPPSNRTVQSPNSSVPSPGLAGPVTMTSVHPPIRSPSASSVGSRGSSGSSSKPAGADSTHKVPVVMLEPIRIKQENSGPPENYDFPVVIVKQESDEESRPQNANYPRSILTSLLLNSSQSSTSEETVLRSDAPDSTGDQPGLHQDNSSNGKSEWLDPSQKSPLHVGETRKEDDPNEDWCAVCQNGGELLCCEKCPKVFHLSCHVPTLTNFPSGEWICTFCRDLSKPEVEYDCDAPSHNSEKKKTEGLVKLTPIDKRKCERLLLFLYCHEMSLAFQDPVPLTVPDYYKIIKNPMDLSTIKKRLQEDYSMYSKPEDFVADFRLIFQNCAEFNEPDSEVANAGIKLENYFEELLKNLYPEKRFPKPEFRNESEDNKFSDDSDDDFVQPRKKRLKSIEERQLLK
With B2 the binding [6] was “binds”.
